According to patent publication US20150141617A1, “PRODUCTION AND PURIFICATION OF ACTIVE EUKARYOTIC FORMYLGLYCINEGENERATING ENZYME (FGE) VARIANTS” (Universität Bielefeld, priority 2013, published 2015):
Some entries share one result that the patent states for a list of compounds.

Test system: 23-aa long substrate peptide Ac-MTDFYVPVSLCTPSRAALLTGRS-NH2
Test: In vitro FGE activity assay (MALDI-ToF MS) with purified recombinant FGE from insect cells
Type: biochemical
Settings: for GSH concentration of maximal activity: 0-15 mM GSH, pH 9.3, 20 min 37° C.; for DTT concentration above which a decrease in the activity was observed / GSH concentration for optimal activity under in vitro conditions: pH 9.3
Description: a) fl-FGE-R69A/R72A (SEQ ID NO: 4) is active and e.g. generates FGly within a 23-aa long substrate peptide 16 pmol of the 23 amino acid (aa) long peptide Ac-[…]-NH2 (SEQ ID NO:46) were incubated with 12 ng of fl-FGE-R69A/R72A for 20 min at 37° C. under assay conditions (50 mM Tris, 67 mM NaCl, 15 μM CaCl2, 0.33 mg/mL BSA, 2 mM DTT, pH 9.3 in a total volume of 30 μL).
The reaction was stopped by adding 3 μL of 20% trifluoroacetic-acid (TFA), immediately followed by vortexing and by a short centrifugation at 10000×g. The peptide was purified and concentrated by C18-Zip-Tip treatment. Therefore the Zip-Tip was prepared by pipetting three times 10 μL of 50% acetonitrile, 0.05% TFA in water and three times 10 μL 0.1% TFA in water. The 33 μL sample was pipetted 10 times up and down. The bound peptide was washed by pipetting 10 times 10 μL 0.1% TFA in water and was eluted in 10 μL 50% acetonitrile, 0.05% TFA in water by pipetting 10 times up and down. For MS-analysis the following matrix was prepared freshly: 40 μL of a saturated α-cyano-hydroxycinnamic acid solution in aceton were added to 10 μL of a solution containing 10 mg/mL nitrocellulose in 50% Aceton/50% Isopropanol (v/v). 0.5 μL of the matrix were spotted onto a polished steel target and 1 μL of the purified sample was added. The dried sample spot was analyzed by MALDI-ToF mass spectrometry using the Ultra flextreme spectrometer from Bruker Daltronics. The cysteine containing substrate peptide (2526.28 [M+H]^+) and the FGly containing product peptide (2508.29 [M+H]^+) were detected.
b) fl-FGE-R69A/R72A (SEQ ID NO:4) is able to generate FGly by using GSH as reductant:10 times stock solutions of DTT and GSH were prepared in 20 mM Tris pH 9.3. For the reaction, 13 ng of Baculo-fl-FGE were incubated with 16 pmol of the 23 aa-long substrate peptide, 2 mM DTT or 5 mM reduced glutathione for 15 min at 37° C. under assay conditions (50 mM Tris, 67 mM NaCl, 15 μM CaCl2, 0.33 mg/mL BSA, pH 9.3 in a total volume of 30 μL). The reactions were stopped and prepared further for MS-analysis as described above. The ratio of the intensity of the FGly-product peptide divided by the sum of the substrate and product intensities multiplied with 100 yields %-turnover of the substrate peptide. Based on that, specific activities were calculated.
The dependence of FGly-generating activity of recombinant fl-FGE-R69A/R72A on the reducing agents DTT and GSH were analyzed at pH 9.3 under standard assay conditions (FGE and substrate peptide were incubated at 37° C. in 50 mM Tris/HCl, 67 mM NaCl, and 0.33 mg/ml BSA in 30 μl volume. The reaction was started by addition of substrate) using a MALDI-mass spectrometry based in vitro activity assay (Ennemann et al., 2013 and FIG. 7).
The pH-dependence for in vitro activity of recombinant fl-FGE-R69A/R72A and Δ72-FGE-wt was analyzed under optimal DTT and GSH concentrations. Accordingly, the activity of recombinant fl-FGE-R69A/R72A in the presence of 2 mM DTT, under standard assay conditions, was measured in buffers of pH ranging from pH 6.5 to 11.0 (FIG. 19A). […] In the presence of 5 mM GSH, the maximal activity was also observed at pH 9.3 and a very similar activity profile ranging from pH 7.5 to 11 (FIG. 19B). […] In summary, fl-FGE-R69A/R72A requires less alkaline conditions for optimum activity than Δ72-FGE-wt.

| Molecule | GSH concentration of maximal activity [mM] | DTT concentration above which a decrease in the activity was observed | GSH concentration for optimal activity under in vitro conditions [mM] |
| --- | --- | --- | --- |
| monomeric FGE (protein) ADEFSQEAGTGAGAGSLAGSCGCGTPQRPGAHGSSAAAHAYSAEANAPGPVPGERQLAHSKMVPIPAGVFTMGTDDPQIKQDGEAPARRVTIDAFYMDAYEVSNTEFEKFVNSTGYLTEAEKFGDSFVFEGMLSEQVKTNIQQAVAAAPWWLPVKGANWRHPEGPDSTILHRPDHPVLHVSWNDAVAYCTWAGKRLPTEAEWEYSCRGGLHNRLFPWGNKLQPKGQHYANIWQGEFPVTNTGEDGFQGTAPVDAFPPNGYGLYNIVGNAWEWTSDWWTVHHSVEETLNPKGPPSGKDRVKKGGSYMCHRSYCYRYRCAARSQNTPDSSASNLGFRCAADRLPTMDSGRGSHHHHHHH | ≥ 5 | above 10 mM | 5 to 15 |
| dimeric FGE: disulfide-bridged dimeric form of recombinant fl-FGE-R69A/R72A separated by size exclusion chromatography (protein) ADEFSQEAGTGAGAGSLAGSCGCGTPQRPGAHGSSAAAHAYSAEANAPGPVPGERQLAHSKMVPIPAGVFTMGTDDPQIKQDGEAPARRVTIDAFYMDAYEVSNTEFEKFVNSTGYLTEAEKFGDSFVFEGMLSEQVKTNIQQAVAAAPWWLPVKGANWRHPEGPDSTILHRPDHPVLHVSWNDAVAYCTWAGKRLPTEAEWEYSCRGGLHNRLFPWGNKLQPKGQHYANIWQGEFPVTNTGEDGFQGTAPVDAFPPNGYGLYNIVGNAWEWTSDWWTVHHSVEETLNPKGPPSGKDRVKKGGSYMCHRSYCYRYRCAARSQNTPDSSASNLGFRCAADRLPTMDSGRGSHHHHHHH | ≥ 5 | above 10 mM | 5 to 15 |
